Measurements as given in the supplement of paper PMC11006884.
The targets with a hit were mostly taken out for another list; the other results follow. The data scatter; read single values as rough. This is a selection; strong and weak results do not stand in their true shares.

Amino acid sequences for entries named in this document (tags omitted). A change or cut given only in a name is not applied to a line headed by its entry.
UniProt Q9P0L0: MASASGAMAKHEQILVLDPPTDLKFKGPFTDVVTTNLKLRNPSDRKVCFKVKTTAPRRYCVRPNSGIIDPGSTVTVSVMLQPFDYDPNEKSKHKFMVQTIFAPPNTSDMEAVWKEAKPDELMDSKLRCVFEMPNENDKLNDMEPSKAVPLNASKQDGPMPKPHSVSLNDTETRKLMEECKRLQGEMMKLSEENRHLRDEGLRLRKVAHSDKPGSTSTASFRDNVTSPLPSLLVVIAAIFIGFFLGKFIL
UniProt Q9UHB9: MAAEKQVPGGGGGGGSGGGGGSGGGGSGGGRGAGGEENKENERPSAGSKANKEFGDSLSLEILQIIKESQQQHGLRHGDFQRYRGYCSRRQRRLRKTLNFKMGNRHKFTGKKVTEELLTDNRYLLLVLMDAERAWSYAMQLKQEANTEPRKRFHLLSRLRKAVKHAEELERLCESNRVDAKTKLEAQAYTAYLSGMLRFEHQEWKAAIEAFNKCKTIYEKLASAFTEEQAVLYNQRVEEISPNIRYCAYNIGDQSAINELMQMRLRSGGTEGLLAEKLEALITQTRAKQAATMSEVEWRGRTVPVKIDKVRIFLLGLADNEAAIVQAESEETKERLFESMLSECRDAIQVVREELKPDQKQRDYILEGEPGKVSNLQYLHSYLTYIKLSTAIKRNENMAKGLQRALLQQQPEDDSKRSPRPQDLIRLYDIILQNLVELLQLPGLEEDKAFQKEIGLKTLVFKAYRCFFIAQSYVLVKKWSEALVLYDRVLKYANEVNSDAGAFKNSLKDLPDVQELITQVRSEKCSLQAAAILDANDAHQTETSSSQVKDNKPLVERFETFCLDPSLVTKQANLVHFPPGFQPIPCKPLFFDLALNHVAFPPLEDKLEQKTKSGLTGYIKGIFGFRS
UniProt Q9NV64: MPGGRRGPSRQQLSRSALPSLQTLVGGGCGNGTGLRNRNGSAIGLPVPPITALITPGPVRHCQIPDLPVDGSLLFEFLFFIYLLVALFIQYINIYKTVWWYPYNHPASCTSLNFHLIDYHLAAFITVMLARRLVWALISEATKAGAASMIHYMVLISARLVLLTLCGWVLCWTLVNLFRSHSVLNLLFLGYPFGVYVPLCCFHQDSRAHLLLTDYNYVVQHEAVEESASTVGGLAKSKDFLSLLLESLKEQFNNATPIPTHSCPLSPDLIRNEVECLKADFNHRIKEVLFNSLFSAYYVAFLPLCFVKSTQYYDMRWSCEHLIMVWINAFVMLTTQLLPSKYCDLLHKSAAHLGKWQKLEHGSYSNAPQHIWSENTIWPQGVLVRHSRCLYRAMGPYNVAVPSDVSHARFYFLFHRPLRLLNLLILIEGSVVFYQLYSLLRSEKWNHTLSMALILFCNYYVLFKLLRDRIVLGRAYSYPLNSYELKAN
UniProt Q9P2D1: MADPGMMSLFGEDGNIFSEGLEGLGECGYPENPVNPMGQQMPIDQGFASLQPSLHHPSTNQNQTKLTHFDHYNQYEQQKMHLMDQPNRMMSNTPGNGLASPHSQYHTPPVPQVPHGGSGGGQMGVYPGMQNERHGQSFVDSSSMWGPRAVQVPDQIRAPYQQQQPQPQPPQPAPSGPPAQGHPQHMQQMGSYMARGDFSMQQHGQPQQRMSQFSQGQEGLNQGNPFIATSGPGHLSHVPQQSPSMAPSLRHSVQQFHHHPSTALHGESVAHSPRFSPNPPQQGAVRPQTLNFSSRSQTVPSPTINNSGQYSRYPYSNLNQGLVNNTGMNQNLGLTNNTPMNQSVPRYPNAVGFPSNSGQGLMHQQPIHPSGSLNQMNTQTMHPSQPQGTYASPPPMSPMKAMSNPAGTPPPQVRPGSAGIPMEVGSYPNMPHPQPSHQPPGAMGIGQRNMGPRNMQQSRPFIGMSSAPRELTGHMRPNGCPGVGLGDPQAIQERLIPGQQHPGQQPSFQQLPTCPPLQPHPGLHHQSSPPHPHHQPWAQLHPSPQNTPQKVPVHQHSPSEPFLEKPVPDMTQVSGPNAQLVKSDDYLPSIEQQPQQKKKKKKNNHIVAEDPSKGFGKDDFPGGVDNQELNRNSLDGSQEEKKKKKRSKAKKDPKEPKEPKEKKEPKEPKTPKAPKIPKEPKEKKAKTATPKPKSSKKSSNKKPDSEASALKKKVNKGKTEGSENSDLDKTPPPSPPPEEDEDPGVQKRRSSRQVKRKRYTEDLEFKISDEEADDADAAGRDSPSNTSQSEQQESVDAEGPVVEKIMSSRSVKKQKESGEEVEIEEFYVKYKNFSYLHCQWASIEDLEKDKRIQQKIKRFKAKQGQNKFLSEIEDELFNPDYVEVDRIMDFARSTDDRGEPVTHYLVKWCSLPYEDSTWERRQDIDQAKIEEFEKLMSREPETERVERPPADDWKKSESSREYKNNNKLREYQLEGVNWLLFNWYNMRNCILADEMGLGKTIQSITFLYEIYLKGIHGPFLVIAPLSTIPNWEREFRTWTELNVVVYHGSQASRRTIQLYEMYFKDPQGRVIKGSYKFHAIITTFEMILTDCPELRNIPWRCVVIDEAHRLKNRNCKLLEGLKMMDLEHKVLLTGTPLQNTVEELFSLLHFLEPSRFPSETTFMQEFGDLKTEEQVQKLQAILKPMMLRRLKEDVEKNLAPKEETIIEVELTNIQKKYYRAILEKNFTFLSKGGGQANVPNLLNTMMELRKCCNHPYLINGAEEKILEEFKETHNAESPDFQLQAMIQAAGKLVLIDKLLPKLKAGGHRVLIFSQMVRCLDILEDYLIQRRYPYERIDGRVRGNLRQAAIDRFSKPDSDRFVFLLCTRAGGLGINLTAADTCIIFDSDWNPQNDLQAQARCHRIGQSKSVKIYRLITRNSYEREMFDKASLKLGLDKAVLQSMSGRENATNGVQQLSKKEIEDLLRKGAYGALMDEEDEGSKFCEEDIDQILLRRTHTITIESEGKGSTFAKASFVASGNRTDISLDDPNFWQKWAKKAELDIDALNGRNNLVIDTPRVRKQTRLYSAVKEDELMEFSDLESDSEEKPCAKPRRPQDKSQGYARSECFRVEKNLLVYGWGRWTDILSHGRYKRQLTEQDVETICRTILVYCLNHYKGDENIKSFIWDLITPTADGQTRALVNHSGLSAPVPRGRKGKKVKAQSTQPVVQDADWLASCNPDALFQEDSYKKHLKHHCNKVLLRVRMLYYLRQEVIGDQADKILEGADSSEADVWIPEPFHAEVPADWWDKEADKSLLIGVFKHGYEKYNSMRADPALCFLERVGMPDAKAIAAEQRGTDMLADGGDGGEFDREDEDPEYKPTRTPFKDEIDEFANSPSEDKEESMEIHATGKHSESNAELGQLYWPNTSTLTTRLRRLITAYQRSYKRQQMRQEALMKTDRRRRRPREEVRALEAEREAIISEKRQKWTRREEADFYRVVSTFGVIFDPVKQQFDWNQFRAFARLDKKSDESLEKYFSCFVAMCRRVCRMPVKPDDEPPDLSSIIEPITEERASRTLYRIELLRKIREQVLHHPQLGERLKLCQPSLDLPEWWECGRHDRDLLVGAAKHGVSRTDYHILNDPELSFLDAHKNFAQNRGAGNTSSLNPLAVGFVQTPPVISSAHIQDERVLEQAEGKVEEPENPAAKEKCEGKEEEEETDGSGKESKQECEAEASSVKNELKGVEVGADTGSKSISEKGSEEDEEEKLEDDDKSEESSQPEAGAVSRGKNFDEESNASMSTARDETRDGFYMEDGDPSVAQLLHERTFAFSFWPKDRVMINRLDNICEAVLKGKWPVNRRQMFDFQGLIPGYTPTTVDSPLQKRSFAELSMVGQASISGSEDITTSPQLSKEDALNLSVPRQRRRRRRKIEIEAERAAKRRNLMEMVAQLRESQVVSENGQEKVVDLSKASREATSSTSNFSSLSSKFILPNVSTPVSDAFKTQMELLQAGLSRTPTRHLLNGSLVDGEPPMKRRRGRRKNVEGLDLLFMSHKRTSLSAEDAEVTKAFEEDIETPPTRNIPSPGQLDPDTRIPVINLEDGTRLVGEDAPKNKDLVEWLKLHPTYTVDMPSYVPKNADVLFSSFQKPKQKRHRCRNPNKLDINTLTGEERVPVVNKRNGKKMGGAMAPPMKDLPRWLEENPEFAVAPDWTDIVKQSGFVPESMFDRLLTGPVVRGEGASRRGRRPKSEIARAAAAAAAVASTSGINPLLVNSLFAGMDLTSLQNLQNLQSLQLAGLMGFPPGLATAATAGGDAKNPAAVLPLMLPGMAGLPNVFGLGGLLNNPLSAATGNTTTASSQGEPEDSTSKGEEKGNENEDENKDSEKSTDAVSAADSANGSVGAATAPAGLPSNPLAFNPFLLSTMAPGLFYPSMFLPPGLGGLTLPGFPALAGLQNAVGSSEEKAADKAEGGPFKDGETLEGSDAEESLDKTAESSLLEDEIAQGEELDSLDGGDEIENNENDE
UniProt Q9NVG8: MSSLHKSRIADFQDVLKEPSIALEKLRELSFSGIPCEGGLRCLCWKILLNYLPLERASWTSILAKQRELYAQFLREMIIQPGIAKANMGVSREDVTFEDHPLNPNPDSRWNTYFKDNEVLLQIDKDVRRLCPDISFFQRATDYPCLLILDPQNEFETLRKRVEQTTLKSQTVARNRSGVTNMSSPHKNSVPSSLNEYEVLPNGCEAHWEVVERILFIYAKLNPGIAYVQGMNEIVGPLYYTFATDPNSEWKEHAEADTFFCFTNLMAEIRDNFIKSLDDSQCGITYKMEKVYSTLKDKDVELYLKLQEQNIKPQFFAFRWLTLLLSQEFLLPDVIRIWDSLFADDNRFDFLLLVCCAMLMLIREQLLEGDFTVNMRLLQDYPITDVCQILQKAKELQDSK
UniProt Q9UBF2: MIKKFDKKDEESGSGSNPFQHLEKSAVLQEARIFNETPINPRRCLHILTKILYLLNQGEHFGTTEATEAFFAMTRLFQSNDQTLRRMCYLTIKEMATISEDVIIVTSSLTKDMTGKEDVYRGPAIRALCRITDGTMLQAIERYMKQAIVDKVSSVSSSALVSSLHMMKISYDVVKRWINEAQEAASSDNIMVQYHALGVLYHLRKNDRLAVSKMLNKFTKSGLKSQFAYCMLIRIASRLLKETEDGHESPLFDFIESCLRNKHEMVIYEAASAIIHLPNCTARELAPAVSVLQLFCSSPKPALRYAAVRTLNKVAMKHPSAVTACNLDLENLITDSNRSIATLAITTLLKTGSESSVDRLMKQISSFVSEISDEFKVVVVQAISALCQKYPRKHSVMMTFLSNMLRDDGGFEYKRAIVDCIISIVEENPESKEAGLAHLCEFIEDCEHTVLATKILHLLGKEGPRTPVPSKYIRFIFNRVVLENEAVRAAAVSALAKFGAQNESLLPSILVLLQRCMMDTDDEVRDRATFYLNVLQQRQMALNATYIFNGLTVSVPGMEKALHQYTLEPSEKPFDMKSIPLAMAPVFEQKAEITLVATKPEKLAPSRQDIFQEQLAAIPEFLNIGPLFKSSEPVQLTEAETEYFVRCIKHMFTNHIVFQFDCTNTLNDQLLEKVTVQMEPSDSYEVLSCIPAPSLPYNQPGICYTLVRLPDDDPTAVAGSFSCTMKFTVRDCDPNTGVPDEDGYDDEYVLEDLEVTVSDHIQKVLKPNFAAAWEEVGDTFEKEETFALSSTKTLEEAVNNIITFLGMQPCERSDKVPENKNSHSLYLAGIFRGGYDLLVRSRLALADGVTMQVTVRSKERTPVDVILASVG
UniProt Q9NZZ3: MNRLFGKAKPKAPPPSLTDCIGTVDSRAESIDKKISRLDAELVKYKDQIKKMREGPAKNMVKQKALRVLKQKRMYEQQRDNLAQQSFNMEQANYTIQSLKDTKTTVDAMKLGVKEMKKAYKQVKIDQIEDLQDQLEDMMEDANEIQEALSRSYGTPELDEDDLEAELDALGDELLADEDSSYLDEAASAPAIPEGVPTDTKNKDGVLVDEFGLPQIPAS
UniProt Q9UBB6: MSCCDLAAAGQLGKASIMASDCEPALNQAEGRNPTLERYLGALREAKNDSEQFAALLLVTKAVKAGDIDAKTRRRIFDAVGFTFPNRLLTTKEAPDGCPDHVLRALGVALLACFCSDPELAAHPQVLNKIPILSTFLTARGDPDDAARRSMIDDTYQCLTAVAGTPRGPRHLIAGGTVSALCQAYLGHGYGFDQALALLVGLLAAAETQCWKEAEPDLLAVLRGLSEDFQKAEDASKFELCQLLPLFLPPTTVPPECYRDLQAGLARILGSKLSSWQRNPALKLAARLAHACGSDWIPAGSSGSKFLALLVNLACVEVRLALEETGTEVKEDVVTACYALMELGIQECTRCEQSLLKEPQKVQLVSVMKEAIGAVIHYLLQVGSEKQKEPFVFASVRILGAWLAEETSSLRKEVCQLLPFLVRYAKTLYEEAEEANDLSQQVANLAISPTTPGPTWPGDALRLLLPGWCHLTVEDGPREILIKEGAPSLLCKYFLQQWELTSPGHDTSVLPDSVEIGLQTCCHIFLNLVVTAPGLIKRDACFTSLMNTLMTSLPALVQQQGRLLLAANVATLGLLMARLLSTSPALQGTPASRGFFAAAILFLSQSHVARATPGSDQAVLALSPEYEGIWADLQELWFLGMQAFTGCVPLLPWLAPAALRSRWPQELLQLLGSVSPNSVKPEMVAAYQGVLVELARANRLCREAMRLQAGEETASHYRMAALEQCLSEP

Compound: COC(=O)/C=C/c1ccccc1 [methyl cinnamate]
Assay: log2 ratio of iodoacetamide-alkyne labeling of the cysteine site, DMSO over compound (competition); higher = stronger covalent engagement of the cysteine by the compound, active = 1 or more
Conditions: 500 µM; treatment time 1 h; system: HEK293T cell lysate
Outline: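 HEK293T lysate (2 mg/mL) was incubated with electrophile (500 µM) or vehicle for 1 h at ambient temperature and then with iodoacetamide alkyne for 1 h. Labelled proteins were clicked to sCIP-TMT reagents, pooled, digested, enriched on streptavidin and measured by Orbitrap Eclipse LC-MS/MS with FAIMS, with FragPipe quantification. The per-cysteine log2 competition ratio is mean control-channel reporter intensity over mean compound-channel reporter intensity. Across three replicates with duplicate channels, cysteines quantified in only one replicate were excluded.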

| Target | log2 ratio of iodoacetamide-alkyne labeling |
| --- | --- |
| VAPA C128 (UniProt Q9P0L0) | inactive: 0.32 |
| KIAA1522 C575 (UniProt Q9P206) | inactive: 0.0888 |
| ANKFY1 C1156 (UniProt Q9P2R3) | inactive: 0.144 |
| SPATS2L C367 (UniProt Q9NUQ6) | inactive: -0.218 |
| UBAP1 C45 (UniProt Q9NZ09) | inactive: 0.163 |
| ATXN10 C134 (UniProt Q9UBB4) | inactive: 0.0976 |
| NDRG3 C290 (UniProt Q9UGV2) | inactive: -0.428 |
| LYAR C51 (UniProt Q9NX58) | inactive: 0.16 |
| ITSN2 C810 (UniProt Q9NZM3) | inactive: 0.0589 |
| SRP68 C525 (UniProt Q9UHB9) | inactive: 0.0575 |
| COPS7A C110 (UniProt Q9UBW8) | inactive: -0.198 |
| FAM120C C14 (UniProt Q9NX05) | inactive: 0.33 |
| UniProt Q9NV64_C29 | inactive: 0.442 |
| RCC2 C428 (UniProt Q9P258) | inactive: 0.111 |
| CHD7 C909 (UniProt Q9P2D1) | inactive: 0.169 |
| NDRG3 C375 (UniProt Q9UGV2) | inactive: 0.189 |
| ZMYM2 C1331 (UniProt Q9UBW7) | inactive: 0.191 |
| TBC1D13 C131 (UniProt Q9NVG8) | inactive: 0.0195 |
| SRP68 C562 (UniProt Q9UHB9) | inactive: -0.0333 |

| Target | log2 ratio of iodoacetamide-alkyne labeling |
| --- | --- |
| SRP68 C586 (UniProt Q9UHB9) | inactive: 0.0154 |
| NUDT4 C131 (UniProt Q9NZJ9) | inactive: 0.29 |
| COPG2 C446 (UniProt Q9UBF2) | inactive: 0.0844 |
| STK39 C450 (UniProt Q9UEW8) | inactive: -0.0648 |
| MPP6 C298 (UniProt Q9NZW5) | inactive: 0.271 |
| UniProt Q9NVA2_C41 | inactive: -0.193 |
| CHMP5 C20 (UniProt Q9NZZ3) | inactive: 0.393 |
| COQ3 C186 (UniProt Q9NZJ6) | inactive: 0.235 |
| MTPAP C412 (UniProt Q9NVV4) | inactive: 0.246 |
| CPSF2 C82 (UniProt Q9P2I0) | inactive: 0.425 |
| IRAK4 C13 (UniProt Q9NWZ3) | inactive: 0.0438 |
| FAM120A C919 (UniProt Q9NZB2) | inactive: 0.112 |
| UniProt Q9NYU2_C1386 | inactive: 0.17 |
| NCDN C415 (UniProt Q9UBB6) | inactive: 0.145 |
| NCDN C22 (UniProt Q9UBB6) | inactive: 0.384 |
| FAM120A C669 (UniProt Q9NZB2) | inactive: -0.0232 |
| LARS C248 (UniProt Q9P2J5) | inactive: -0.108 |
| DDX19A C224 (UniProt Q9NUU7) | inactive: 0.104 |

Single values from above:
log2 ratio of iodoacetamide-alkyne labeling, COQ3 C186 (UniProt Q9NZJ6) is entered as inactive: 0.235
log2 ratio of iodoacetamide-alkyne labeling, STK39 C450 (UniProt Q9UEW8) is entered as inactive: -0.0648
